Experimental data from US20050129678A1 (published 2005).
These are yes or no findings as the source states them, for the method shown. In cells and extracts the contact can be indirect. Some results given as binding are weak or reduced against the parent protein; the word gives no strength. For some assays here: Tags and fused reporters may be left off the sequences shown.

Chains of the proteins cited; added tags and fusions are not shown.
UniProt Q04338: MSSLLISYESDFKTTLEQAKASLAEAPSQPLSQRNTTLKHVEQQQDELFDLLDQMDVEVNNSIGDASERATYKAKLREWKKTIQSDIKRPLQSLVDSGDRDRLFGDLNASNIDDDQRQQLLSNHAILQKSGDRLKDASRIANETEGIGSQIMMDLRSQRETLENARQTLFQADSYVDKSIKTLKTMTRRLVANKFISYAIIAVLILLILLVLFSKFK
UniProt P32854: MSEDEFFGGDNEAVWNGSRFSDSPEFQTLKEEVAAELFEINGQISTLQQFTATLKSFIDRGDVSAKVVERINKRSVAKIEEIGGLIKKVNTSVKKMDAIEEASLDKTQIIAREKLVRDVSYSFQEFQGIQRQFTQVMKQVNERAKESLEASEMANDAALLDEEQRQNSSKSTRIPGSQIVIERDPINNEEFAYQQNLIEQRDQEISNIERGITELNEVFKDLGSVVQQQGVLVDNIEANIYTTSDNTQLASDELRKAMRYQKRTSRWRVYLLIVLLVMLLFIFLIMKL

T1: GST-Yil033C (yeast, UniProt P07278 1-416)
T1 construct: also called Yil033C-Bcy1; Yil033C-Bcyl; not shown: glutathione S-transferase (GST) fusion tag
T1 sequence (looked up): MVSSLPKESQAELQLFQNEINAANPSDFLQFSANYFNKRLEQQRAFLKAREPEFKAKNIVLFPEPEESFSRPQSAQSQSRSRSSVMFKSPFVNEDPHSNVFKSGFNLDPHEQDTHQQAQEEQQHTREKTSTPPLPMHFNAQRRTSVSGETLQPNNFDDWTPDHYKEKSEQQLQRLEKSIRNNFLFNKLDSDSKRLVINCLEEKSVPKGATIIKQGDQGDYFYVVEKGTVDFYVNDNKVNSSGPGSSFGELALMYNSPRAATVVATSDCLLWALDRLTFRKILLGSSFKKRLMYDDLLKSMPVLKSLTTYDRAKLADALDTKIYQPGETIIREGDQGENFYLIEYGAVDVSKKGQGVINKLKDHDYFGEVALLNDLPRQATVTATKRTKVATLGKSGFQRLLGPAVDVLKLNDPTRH

B1: endogenous Tpk1 (enzyme, yeast, UniProt P06244 2-397, looked up)
chain: STEEQNGGGQKSLDDRQGEESQKGETSERETTATESGNESKSVEKEGGETQEKPKQPHVTYYNEEQYKQFIAQARVTSGKYSLQDFQILRTLGTGSFGRVHLIRSRHNGRYYAMKVLKKEIVVRLKQVEHTNDERLMLSIVTHPFIIRMWGTFQDAQQIFMIMDYIEGGELFSLLRKSQRFPNPVAKFYAAEVCLALEYLHSKDIIYRDLKPENILLDKNGHIKITDFGFAKYVPDVTYTLCGTPDYIAPEVVSTKPYNKSIDWWSFGILIYEMLAGYTPFYDSNTMKTYEKILNAELRFPPFFNEDVKDLLSRLITRDLSQRLGNLQNGTEDVKNHPWFKEVVWEKLLSRNIETPYEPPIQQGQGDTSQFDKYPEEDINYGVQGEDPYADLFRDF
notes: Untagged yeast Tpk1 found in a GST fusion preparation; also called Tpk1wt; a protein with the same molecular weight as Tpk1

Columns and labels:
[1] = target: Ymr197C-Vti1 (GST fusion on the yeast proteome microarray) (yeast) (UniProt Q04338); assay: co-purification of endogenous Pep12 with the GST fusion, Western blot with anti-Pep12
GST-Yil033C = target: T1, GST-Yil033C; assay: co-purification with the GST fusion, Western blot with anti-Tpk1

Row | Molecule | binding [1] | binding (GST-Yil033C)
1 | endogenous Pep12 (from UniProt P32854 1-288) | binds | –
2 | B1 | – | binds
